Results as given in publication PMC8566207.
These are yes or no findings as the source states them, for the method shown. Binding calls can cover weak binding; strength is not graded here. For some of these results: Binding seen in cells or lysates may run through a third protein.

Sequences of proteins named here, by UniProt entry; tags and fusion partners are left off. A change or cut given only in a name is not applied to a line headed by its entry.
UniProt O49279: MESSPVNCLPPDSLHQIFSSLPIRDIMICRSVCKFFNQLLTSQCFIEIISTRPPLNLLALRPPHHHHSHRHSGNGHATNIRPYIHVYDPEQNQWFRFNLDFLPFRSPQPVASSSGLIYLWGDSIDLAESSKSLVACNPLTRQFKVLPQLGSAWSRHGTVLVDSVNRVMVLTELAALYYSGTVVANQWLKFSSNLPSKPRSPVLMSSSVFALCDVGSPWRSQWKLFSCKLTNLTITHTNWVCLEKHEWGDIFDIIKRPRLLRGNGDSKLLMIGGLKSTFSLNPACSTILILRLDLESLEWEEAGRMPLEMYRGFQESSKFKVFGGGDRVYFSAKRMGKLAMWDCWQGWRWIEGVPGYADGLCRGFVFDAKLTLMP
UniProt Q9LN63: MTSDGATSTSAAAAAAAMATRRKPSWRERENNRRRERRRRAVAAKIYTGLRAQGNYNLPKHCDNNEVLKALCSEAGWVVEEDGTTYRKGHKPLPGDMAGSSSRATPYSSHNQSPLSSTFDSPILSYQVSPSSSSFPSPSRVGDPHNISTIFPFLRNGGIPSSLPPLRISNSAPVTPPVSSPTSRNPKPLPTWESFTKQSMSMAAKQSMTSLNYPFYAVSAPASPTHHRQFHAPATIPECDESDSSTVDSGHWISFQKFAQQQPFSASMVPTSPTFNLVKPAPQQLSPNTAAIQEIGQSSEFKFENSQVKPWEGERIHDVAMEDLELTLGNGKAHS

Columns and labels:
[1] = biological target: full-length BAF1-cYFP (Arabidopsis thaliana) (UniProt O49279); test: split reporter; BiFC: nYFP and cYFP fusions co-infiltrated by Agrobacterium into N. benthamiana leaves; YFP signal by confocal microscopy after 36 h
[2] = biological target: BAF1-FLAG (Arabidopsis thaliana) (UniProt O49279); test: co-IP; Arabidopsis protoplasts co-transformed with FLAG and GFP constructs; anti-FLAG M2 on protein G Dynabeads, 4 °C; blot with anti-GFP and anti-FLAG
[3] = biological target: GST-BAF1 (Arabidopsis thaliana) (UniProt O49279); test: pull-down; GST or GST fusions mixed with MBP fusion protein in 50 mM Tris-HCl pH 7.5, 200 mM NaCl, 0.5% Triton X-100, 0.5 mM β-mercaptoethanol, room temperature 2 h; captured on GST beads; MBP fusion detected with anti-MBP; both purified

Row | Substance | binding [2] | also measured
1 | BES1-nYFP (from UniProt Q9LN63 1-335) |  | binding [1]: binds weakly
2 | dephosphorylated BES1-GFP (from UniProt Q9LN63 1-335) | binds | 
3 | phosphorylated BES1-GFP (P-BES1-GFP) (from UniProt Q9LN63 1-335) | binds | 
4 | MBP-BES1 (from UniProt Q9LN63 1-335) |  | binding [3]: binds
